Reference: the supplement of paper PMC10849652
Some of the results follow.

By UniProt entry, the sequences of proteins in these tests, tags left out. Where a name states a change or a piece, a line headed by the entry shows the natural chain unless it says otherwise.
UniProt Q96Q15: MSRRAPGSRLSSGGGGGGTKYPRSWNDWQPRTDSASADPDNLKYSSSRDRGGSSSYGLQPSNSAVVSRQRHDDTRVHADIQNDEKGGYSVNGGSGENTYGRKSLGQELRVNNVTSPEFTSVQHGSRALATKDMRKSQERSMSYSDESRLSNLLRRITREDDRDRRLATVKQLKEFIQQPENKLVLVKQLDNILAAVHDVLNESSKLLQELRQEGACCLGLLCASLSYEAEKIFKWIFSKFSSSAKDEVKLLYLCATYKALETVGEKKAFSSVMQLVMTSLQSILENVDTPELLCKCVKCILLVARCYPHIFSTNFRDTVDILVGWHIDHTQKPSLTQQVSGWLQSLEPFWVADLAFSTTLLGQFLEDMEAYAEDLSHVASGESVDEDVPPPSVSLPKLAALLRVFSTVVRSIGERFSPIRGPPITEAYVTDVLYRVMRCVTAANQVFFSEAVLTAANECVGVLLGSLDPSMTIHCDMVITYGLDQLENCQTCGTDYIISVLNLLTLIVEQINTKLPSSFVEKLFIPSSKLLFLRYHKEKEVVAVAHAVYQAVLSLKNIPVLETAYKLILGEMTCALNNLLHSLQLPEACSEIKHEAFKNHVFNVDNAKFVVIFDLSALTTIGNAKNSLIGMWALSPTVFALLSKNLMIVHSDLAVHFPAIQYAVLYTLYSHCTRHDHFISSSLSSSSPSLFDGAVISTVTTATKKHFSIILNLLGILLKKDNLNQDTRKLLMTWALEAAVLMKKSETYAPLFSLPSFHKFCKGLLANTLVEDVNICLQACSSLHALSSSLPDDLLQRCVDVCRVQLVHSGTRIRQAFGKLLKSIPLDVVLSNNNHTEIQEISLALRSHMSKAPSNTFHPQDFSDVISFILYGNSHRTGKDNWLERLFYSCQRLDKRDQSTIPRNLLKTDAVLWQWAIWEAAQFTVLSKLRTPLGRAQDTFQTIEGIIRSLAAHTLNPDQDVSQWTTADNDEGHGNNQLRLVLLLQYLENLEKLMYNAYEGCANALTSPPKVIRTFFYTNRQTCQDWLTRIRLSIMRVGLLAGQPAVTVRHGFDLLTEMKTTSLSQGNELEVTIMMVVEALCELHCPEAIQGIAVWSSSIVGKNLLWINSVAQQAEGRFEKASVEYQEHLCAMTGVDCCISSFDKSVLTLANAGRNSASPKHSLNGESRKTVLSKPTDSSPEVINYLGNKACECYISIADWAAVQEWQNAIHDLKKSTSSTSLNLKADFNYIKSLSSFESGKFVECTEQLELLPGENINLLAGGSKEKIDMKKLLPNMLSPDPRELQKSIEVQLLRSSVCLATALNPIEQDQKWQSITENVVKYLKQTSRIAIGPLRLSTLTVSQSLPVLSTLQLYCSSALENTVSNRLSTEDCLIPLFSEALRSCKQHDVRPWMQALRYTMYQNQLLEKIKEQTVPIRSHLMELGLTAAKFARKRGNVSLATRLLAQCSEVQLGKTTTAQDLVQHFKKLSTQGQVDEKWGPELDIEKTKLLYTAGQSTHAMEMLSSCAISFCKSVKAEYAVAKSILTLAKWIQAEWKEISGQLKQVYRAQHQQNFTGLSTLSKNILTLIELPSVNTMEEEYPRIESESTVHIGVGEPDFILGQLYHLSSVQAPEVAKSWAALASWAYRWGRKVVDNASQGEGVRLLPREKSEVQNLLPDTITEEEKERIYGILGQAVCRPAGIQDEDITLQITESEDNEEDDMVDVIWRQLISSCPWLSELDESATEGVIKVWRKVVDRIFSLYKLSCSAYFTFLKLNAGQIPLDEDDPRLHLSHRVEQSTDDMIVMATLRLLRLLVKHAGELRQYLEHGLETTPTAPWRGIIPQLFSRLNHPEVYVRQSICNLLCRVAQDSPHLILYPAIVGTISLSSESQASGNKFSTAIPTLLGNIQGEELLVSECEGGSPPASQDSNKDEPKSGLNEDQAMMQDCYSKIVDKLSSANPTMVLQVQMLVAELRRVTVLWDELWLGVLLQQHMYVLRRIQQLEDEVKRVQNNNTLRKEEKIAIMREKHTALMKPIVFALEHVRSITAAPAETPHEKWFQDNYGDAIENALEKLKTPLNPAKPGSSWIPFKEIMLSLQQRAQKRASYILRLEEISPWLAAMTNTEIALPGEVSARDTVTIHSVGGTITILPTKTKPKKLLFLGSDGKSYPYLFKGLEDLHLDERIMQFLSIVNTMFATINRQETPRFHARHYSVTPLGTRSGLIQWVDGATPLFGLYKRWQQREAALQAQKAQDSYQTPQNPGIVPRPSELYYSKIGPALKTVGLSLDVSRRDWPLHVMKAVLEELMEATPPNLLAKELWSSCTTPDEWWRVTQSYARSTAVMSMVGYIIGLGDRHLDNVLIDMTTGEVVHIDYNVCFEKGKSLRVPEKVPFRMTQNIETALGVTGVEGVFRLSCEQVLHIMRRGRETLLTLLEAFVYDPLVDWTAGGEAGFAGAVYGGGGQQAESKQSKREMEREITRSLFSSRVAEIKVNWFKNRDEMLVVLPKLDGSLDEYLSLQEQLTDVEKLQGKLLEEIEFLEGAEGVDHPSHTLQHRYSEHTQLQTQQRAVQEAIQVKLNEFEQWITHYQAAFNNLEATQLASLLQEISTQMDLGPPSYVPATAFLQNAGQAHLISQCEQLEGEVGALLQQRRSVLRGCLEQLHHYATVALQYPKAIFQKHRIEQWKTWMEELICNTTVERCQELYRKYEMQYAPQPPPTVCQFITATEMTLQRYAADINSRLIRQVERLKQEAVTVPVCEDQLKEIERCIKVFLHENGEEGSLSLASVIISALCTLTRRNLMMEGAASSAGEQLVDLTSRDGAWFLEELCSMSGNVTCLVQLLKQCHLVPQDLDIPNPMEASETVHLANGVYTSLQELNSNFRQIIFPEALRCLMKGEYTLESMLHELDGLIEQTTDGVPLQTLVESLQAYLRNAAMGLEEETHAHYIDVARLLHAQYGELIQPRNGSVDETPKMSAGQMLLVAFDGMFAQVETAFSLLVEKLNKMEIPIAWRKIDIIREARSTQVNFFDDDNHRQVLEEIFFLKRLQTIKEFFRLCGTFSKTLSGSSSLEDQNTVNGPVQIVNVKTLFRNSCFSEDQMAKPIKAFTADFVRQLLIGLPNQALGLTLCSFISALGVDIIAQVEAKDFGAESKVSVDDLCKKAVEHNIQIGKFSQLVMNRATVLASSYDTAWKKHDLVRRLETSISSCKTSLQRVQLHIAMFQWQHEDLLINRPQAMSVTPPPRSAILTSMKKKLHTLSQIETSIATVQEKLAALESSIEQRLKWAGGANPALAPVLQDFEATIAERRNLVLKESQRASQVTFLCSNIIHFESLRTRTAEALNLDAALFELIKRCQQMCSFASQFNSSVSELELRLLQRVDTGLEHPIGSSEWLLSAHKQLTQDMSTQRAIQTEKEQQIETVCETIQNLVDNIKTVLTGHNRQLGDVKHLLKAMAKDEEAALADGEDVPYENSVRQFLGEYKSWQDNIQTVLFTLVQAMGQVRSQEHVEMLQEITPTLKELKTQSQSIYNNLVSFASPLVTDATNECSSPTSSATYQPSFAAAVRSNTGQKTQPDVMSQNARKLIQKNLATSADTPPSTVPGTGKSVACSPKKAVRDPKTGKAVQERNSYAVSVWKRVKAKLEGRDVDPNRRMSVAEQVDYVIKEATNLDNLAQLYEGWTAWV
UniProt Q13485: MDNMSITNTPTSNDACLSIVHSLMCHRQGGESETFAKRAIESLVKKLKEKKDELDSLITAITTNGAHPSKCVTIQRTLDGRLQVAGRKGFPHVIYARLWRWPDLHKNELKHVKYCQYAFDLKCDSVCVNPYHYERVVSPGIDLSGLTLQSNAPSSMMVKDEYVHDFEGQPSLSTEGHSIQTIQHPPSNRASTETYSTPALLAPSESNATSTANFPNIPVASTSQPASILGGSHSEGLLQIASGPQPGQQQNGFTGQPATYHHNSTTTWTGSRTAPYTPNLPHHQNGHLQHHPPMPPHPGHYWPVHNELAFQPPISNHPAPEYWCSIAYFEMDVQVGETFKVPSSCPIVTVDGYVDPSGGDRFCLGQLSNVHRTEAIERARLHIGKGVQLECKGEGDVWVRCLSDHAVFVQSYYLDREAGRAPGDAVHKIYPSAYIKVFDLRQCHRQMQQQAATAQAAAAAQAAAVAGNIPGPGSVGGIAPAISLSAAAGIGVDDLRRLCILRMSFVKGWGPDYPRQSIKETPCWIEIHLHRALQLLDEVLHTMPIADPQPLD
UniProt Q14BN4: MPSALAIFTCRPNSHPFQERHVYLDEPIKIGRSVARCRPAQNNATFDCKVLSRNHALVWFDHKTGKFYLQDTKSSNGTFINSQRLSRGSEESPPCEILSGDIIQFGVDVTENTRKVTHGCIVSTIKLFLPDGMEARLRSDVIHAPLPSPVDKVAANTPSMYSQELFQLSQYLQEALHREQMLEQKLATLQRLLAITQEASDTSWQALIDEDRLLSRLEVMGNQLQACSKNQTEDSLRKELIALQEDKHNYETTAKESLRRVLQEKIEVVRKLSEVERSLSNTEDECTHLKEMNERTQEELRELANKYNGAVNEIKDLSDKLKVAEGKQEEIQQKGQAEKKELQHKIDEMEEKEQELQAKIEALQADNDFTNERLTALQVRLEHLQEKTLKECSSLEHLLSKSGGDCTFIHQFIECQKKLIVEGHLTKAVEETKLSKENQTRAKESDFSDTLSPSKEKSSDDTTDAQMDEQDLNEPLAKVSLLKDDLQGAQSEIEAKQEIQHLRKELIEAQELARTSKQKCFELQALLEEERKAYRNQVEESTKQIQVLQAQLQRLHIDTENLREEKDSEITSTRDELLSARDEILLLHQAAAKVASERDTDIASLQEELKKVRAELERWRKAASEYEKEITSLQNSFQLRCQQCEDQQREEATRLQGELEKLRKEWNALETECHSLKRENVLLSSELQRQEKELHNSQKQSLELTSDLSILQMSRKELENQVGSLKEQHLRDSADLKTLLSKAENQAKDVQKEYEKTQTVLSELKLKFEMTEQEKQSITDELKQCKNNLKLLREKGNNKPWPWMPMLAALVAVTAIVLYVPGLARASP
UniProt Q9H4L7: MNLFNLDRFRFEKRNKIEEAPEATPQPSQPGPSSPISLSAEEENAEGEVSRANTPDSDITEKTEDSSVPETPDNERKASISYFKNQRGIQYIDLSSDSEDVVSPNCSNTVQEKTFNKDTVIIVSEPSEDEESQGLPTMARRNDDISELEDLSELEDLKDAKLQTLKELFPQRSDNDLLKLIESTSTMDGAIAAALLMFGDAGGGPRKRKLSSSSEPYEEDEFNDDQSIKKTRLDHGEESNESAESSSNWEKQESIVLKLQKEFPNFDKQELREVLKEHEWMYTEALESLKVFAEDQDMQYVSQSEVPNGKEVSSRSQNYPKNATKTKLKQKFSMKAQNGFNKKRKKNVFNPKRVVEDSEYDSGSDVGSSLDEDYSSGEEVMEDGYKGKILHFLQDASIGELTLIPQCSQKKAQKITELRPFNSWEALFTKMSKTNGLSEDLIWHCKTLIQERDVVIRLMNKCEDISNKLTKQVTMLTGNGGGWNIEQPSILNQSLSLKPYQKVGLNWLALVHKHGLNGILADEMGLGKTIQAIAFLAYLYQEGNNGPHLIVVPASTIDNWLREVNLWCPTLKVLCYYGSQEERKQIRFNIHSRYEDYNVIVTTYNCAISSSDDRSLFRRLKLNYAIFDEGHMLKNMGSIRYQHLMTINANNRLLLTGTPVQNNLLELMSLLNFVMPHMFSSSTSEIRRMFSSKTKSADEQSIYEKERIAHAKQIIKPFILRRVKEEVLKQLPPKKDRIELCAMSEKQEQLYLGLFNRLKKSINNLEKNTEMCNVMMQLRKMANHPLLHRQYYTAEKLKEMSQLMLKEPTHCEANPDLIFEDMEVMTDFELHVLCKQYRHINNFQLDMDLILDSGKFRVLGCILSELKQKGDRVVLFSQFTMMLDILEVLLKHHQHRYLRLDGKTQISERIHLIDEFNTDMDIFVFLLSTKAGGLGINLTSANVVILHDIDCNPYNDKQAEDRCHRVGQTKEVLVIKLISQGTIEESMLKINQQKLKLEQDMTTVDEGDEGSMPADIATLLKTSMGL
UniProt Q969G3, whole entry, looked up: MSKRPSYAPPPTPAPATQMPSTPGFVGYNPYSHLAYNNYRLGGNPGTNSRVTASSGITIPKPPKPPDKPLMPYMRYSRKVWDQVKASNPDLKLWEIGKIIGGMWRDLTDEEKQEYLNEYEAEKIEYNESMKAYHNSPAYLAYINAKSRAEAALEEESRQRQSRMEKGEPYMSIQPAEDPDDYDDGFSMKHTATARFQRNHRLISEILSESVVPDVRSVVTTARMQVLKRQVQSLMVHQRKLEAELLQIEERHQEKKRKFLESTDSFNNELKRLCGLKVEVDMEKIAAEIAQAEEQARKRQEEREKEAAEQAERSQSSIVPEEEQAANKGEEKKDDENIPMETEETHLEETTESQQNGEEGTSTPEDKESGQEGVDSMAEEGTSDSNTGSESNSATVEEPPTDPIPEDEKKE
UniProt Q9H4I9: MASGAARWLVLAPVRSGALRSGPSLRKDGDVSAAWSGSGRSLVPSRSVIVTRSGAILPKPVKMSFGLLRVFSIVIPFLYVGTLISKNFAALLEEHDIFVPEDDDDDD

Compound: Cn1cc(-c2ccc3nnc(C(F)(F)c4ccc5ncccc5c4)n3n2)cn1
Assay: log2 fold change, soluble protein after heating vs DMSO (PISA); higher = thermal stabilisation; K562 cells, 10 uM, 30 min; active = over 0.2 and 3.5 SD of the protein, either way, in both replicates (recomputed)
How it was run: (§1)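 Soluble protein was defined as the supernatant after 21,000xg for 90 min. It came from K562 cells at 2×10^6 cells/mL given 10 μM compound for 30 min, heated in aliquots for 3 min across 48°C-58°C, pooled, and extracted in PBS with 0.5% NP-40 at 4°C, and was quantified by TMTpro 16plex LC-MS/MS with equalised channel sums. Thermal stability against control samples, from duplicates, is reported as log2 fold change.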

| Target | log2 fold change |
| --- | --- |
| SMARCA1 (UniProt P28370) | inactive: 0.063 |
| SMARCA2 (UniProt P51531) | inactive: 0.112 |
| SMG1 (UniProt Q96Q15) | inactive: 0.023 |
| SMAD4 (UniProt Q13485) | inactive: -0.052 |
| SLMAP (UniProt Q14BN4) | inactive: 0.09 |
| SMARCAD1 isoform 2 (UniProt Q9H4L7) | inactive: 0.034 |
| SMARCE1 (UniProt Q969G3) | inactive: -0.09 |

Compound: Cn1cncc1[C@@](N)(c1ccc(Cl)cc1)c1ccc2c(c1)c(-c1cccc(Cl)c1)cc(=O)n2C [tipifarnib]
Assay: as above
How it was run: as §1

| Target | log2 fold change |
| --- | --- |
| SORBS1 isoform 12 (UniProt Q9BX66) | inactive: 0.047 |
| SLCO4A1 (UniProt Q96BD0) | inactive: -0.074 |
| SON isoform 9 (UniProt P18583) | inactive: 0 |
| SMIM1 (UniProt B2RUZ4) | inactive: 0.112 |
| SMAP (UniProt O00193) | inactive: -0.042 |
| SORD (UniProt Q00796) | inactive: 0 |
| SPAG7 (UniProt O75391) | inactive: 0.035 |
| SMIM20 isoform 2 (UniProt Q8N5G0) | inactive: 0.017 |
| SMIM8 (UniProt Q96KF7) | inactive: -0.02 |
| SMPD4 isoform 2 (UniProt Q9NXE4) | inactive: -0.111 |
| SNX8 (UniProt Q9Y5X2) | inactive: 0.069 |
| SMARCA4 (UniProt P51532) | inactive: 0.197 |
| SLC9A1 (UniProt P19634) | inactive: 0 |
| SNX12 isoform 1 (UniProt Q9UMY4) | inactive: -0.015 |
| SMYD2 (UniProt Q9NRG4) | inactive: -0.121 |
| SLK isoform 2 (UniProt Q9H2G2) | inactive: -0.018 |
| SLC7A6OS (UniProt Q96CW6) | inactive: 0.06 |

| Target | log2 fold change |
| --- | --- |
| SMG9 (UniProt Q9H0W8) | inactive: 0.25 |
| SNX16 (UniProt P57768) | inactive: -0.056 |
| SNAPC5 (UniProt O75971) | inactive: 0.091 |
| SLC7A6 (UniProt Q92536) | inactive: -0.016 |
| SOCS2 (UniProt O14508) | inactive: -0.012 |
| SNX1 (UniProt Q13596) | inactive: -0.002 |
| SLC8B1 (UniProt Q6J4K2) | inactive: 0.058 |
| SMS (UniProt P52788) | inactive: -0.015 |
| SOX7 isoform 2 (UniProt Q9BT81) | inactive: 0.145 |
| SMARCA1 (UniProt P28370) | inactive: 0.006 |
| SMG1 (UniProt Q96Q15) | inactive: -0.098 |
| SMAD4 (UniProt Q13485) | inactive: -0.038 |
| SLMAP (UniProt Q14BN4) | inactive: 0.005 |
| SMARCAD1 isoform 2 (UniProt Q9H4L7) | inactive: -0.144 |
| SMCR8 (UniProt Q8TEV9) | inactive: 0.04 |
| SMARCE1 (UniProt Q969G3) | inactive: -0.082 |

Compound: FC(F)(F)c1ccc(/C=C/c2nc(COc3ccc(CCCCn4ccnn4)cc3)co2)cc1 [mubritinib]
Assay: as above
How it was run: as §1

| Target | log2 fold change |
| --- | --- |
| SORBS1 isoform 12 (UniProt Q9BX66) | inactive: 0.024 |
| SLCO4A1 (UniProt Q96BD0) | inactive: 0.109 |
| SMIM1 (UniProt B2RUZ4) | inactive: 0.044 |
| SMAP (UniProt O00193) | inactive: 0.038 |
| SORD (UniProt Q00796) | inactive: 0.032 |
| SPAG7 (UniProt O75391) | inactive: 0.035 |
| SMDT1 (UniProt Q9H4I9) | inactive: 0.068 |
| SMIM20 isoform 2 (UniProt Q8N5G0) | inactive: 0.009 |
| SMIM8 (UniProt Q96KF7) | inactive: 0.007 |
| SMPD4 isoform 2 (UniProt Q9NXE4) | inactive: 0.108 |
| SNX8 (UniProt Q9Y5X2) | inactive: 0.023 |
| SMARCA4 (UniProt P51532) | inactive: 0.101 |
| SLC9A1 (UniProt P19634) | inactive: -0.045 |
| SNX12 isoform 1 (UniProt Q9UMY4) | inactive: -0.009 |
| SMYD2 (UniProt Q9NRG4) | inactive: 0.014 |
| SLK isoform 2 (UniProt Q9H2G2) | inactive: 0.026 |
| SNAP91 (UniProt O60641) | inactive: 0.08 |
| SLC7A6OS (UniProt Q96CW6) | inactive: 0.058 |

| Target | log2 fold change |
| --- | --- |
| SMG9 (UniProt Q9H0W8) | inactive: 0.005 |
| SNX16 (UniProt P57768) | inactive: 0.101 |
| SLC7A6 (UniProt Q92536) | inactive: 0.049 |
| SOCS2 (UniProt O14508) | inactive: 0.106 |
| SNX1 (UniProt Q13596) | inactive: 0.057 |
| SMS (UniProt P52788) | inactive: 0.042 |
| SMAD5 (UniProt Q99717) | inactive: 0.209 |
| SOX7 isoform 2 (UniProt Q9BT81) | inactive: -0.159 |
| SMARCA1 (UniProt P28370) | inactive: 0.239 |
| SMARCA2 (UniProt P51531) | inactive: 0.057 |
| SMG1 (UniProt Q96Q15) | inactive: 0.064 |
| SMAD4 (UniProt Q13485) | inactive: 0.006 |
| SMIM15 (UniProt Q7Z3B0) | inactive: -0.009 |
| SLMAP (UniProt Q14BN4) | inactive: 0.054 |
| SMARCAD1 isoform 2 (UniProt Q9H4L7) | inactive: 0.241 |
| SMCR8 (UniProt Q8TEV9) | inactive: 0.01 |
| SMARCE1 (UniProt Q969G3) | inactive: -0.274 |
